PubChem BioAssay AID504764 – Drosophila RNAi Screening Center, 2011
The deposit covers about 22,000 reagents; this is a random part of those with a known target gene and a result. In the full data, 403 (1.9%) got an active call. 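Unnormalised raw counts per well; ratio z-scores behind the hit calls and whether each hit raises or lowers signal are not deposited.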 The record does not give: the amount of reagent.

Aim: 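Knock-downs that raise or lower a Notch target reporter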 (primary screen)
Cells: Drosophila Kc167 cells
Reagents: long dsRNA against Drosophila genes
Duration: about 5 days (4 days dsRNA, then 24 h after transfection)
Conditions: transfection of constitutively active membrane-tethered Notch lacking the extracellular domain, read 24 h later
Measured: 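Light from a Notch-responsive E(spl)m3 luciferase reporter under active Notch, with control-promoter and no-Notch reporter wells to normalise; raw counts from paired wells a and b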
Scale: induced reporter light, run 1, well a and induced reporter light, run 1, well b: higher = more light from the Notch target reporter with active Notch; control promoter light, run 1, well a and control promoter light, run 1, well b: higher = more light from the viral control promoter (cell number, transfection, viability); uninduced reporter light, run 1, well a: higher = more light from the Notch target reporter without active Notch
Rule for the call: 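Wells with low control signal or poorly matching duplicates excluded; duplicates averaged; per source plate, z beyond ±2 for induced/control log2 ratio or beyond ±1.8 for induced/uninduced marks a hit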
Meaning of the calls: active = modifier hit (raised or lowered Notch signal); inactive = not a hit

target | dsRNA | induced reporter light, run 1, well a | induced reporter light, run 1, well b | control promoter light, run 1, well a | control promoter light, run 1, well b | uninduced reporter light, run 1, well a | Call
CG13024 | DRSC09904 | 56830 | 56755 | 65585 | 45365 | 4892 | inactive
Alp7 (Alkaline phosphatase 7) | DRSC04355 | 43360 | 27355 | 42300 | 49365 | 1630 | inactive
CG31296 | DRSC13092 | 88330 | 1.10e5 | 1.32e5 | 1.15e5 | 6705 | inactive
ScsbetaA (Succinyl-coenzyme A synthetase beta subunit, ADP-forming) | DRSC14446 | 93845 | 1.26e5 | 73840 | 58725 | 7115 | inactive
CG7568 | DRSC16259 | 1.81e5 | 1.75e5 | 2.58e5 | 2.15e5 | 15165 | inactive
dpr10 (defective proboscis extension response 10) | DRSC09015 | 2.25e5 | 2.28e5 | 1.93e5 | 1.72e5 | 14360 | inactive
dpr10 (defective proboscis extension response 10) | DRSC09018 | 2.45e5 | 1.96e5 | 2.54e5 | 2.32e5 | 11785 | inactive
dpr10 (defective proboscis extension response 10) | DRSC10159 | 90670 | 95680 | 1.58e5 | 1.36e5 | 7745 | inactive
dpr10 (defective proboscis extension response 10) | DRSC10160 | 1.62e5 | 1.16e5 | 1.70e5 | 1.49e5 | 8025 | inactive
CG2246 | DRSC15433 | 1.72e5 | 1.73e5 | 2.21e5 | 2.27e5 | 12015 | inactive
CG12111 | DRSC17808 | 1.39e5 | 1.43e5 | 2.31e5 | 2.41e5 | 9355 | inactive
Rtca (RNA 3'-terminal phosphate cyclase) | DRSC18517 | 2.00e5 | 1.98e5 | 2.71e5 | 2.33e5 | 12990 | inactive
qjt (quijote) | DRSC10060 | 2.22e5 | 2.25e5 | 2.89e5 | 2.85e5 | 7460 | inactive
Act57B (Actin 57B) | DRSC04042 | 2.18e5 | 2.07e5 | 1.80e5 | 1.94e5 | 13050 | inactive
CG13725 | DRSC10054 | 1.58e5 | 1.39e5 | 2.28e5 | 2.24e5 | 10820 | inactive
CG1314 | DRSC20495 | 1.21e5 | 1.32e5 | 1.22e5 | 58320 | 9035 | inactive
CR11700 (retired record) | DRSC17794 | 8880 | 5790 | 13150 | 15538 | 470 | inactive
CG10841 | DRSC14271 | 1.71e5 | 1.63e5 | 1.25e5 | 1.13e5 | 10510 | inactive
Cyp6w1 (Cytochrome P450 6w1) | DRSC04909 | 1.75e5 | 2.18e5 | 1.72e5 | 1.41e5 | 13880 | inactive
Gal (beta galactosidase) | DRSC03134 | 1.36e5 | 89905 | 1.51e5 | 1.31e5 | 7400 | inactive
CG31473 | DRSC15443 | 1.13e5 | 90135 | 71560 | 78615 | 5420 | inactive
mtDNA-helicase (mitochondrial DNA helicase) | DRSC02912 | 1.41e5 | 1.80e5 | 85630 | 1.17e5 | 21115 | inactive
Pef (Peflin) | DRSC06695 | 85730 | 70160 | 71540 | 67135 | 6588 | inactive
Acbp3 (Acyl-CoA binding protein 3) | DRSC11022 | 2.39e5 | 2.47e5 | 2.95e5 | 2.36e5 | 7795 | inactive
Cyt-b5-r (Cytochrome b5-related) | DRSC03308 | 1.67e5 | 1.76e5 | 1.85e5 | 2.03e5 | 11935 | inactive
CG14071 | DRSC02374 | 99935 | 1.56e5 | 59750 | 71510 | 16400 | inactive
cass (cassowary) | DRSC01850 | 86145 | 1.01e5 | 72635 | 87820 | 6845 | inactive
stg (string) | DRSC17071 | 14040 | 12155 | 19600 | 17440 | 1140 | inactive
Tengl4 (Testis EndoG-Like 4) | DRSC15620 | 76765 | 85165 | 70935 | 69305 | 4065 | inactive
Peritrophin-15b | DRSC02266 | 1.20e5 | 1.49e5 | 81715 | 1.06e5 | 18340 | inactive
CG4229 | DRSC10407 | 1.36e5 | 1.63e5 | 97770 | 1.31e5 | 10500 | inactive
CG16790 | DRSC15156 | 66565 | 57000 | 56845 | 46495 | 3375 | inactive
NimB1 (Nimrod B1) | DRSC01880 | 2.25e5 | 2.35e5 | 1.97e5 | 1.95e5 | 16935 | inactive
CG3408 | DRSC10360 | 1.33e5 | 1.18e5 | 1.69e5 | 1.61e5 | 7055 | inactive
N (Notch) | DRSC18685 | 1.38e5 | 1.31e5 | 1.89e5 | 1.79e5 | 8875 | inactive
CG11975 | DRSC14452 | 1.51e5 | 1.64e5 | 1.25e5 | 1.11e5 | 9325 | inactive
GstO1 (Glutathione S transferase O1) | DRSC10688 | 1.78e5 | 1.67e5 | 1.78e5 | 2.00e5 | 8255 | inactive
CG32241 | DRSC08100 | 2.12e5 | 1.63e5 | 2.01e5 | 1.99e5 | 13550 | inactive
scra (scraps) | DRSC07679 | 1.67e5 | 2.05e5 | 1.91e5 | 1.85e5 | 15465 | inactive
CG11286 | DRSC14293 | 79465 | 78000 | 65490 | 59225 | 5140 | inactive
Su(H) (Suppressor of Hairless) | DRSC03445 | 65830 | 77240 | 1.27e5 | 1.48e5 | 14930 | active
CG12155 | DRSC17826 | 1.62e5 | 1.74e5 | 1.41e5 | 1.11e5 | 11270 | inactive
Gnmt (Glycine N-methyltransferase) | DRSC15987 | 29170 | 43015 | 58525 | 39585 | 5838 | inactive
gas (gasoline) | DRSC04521 | 1.49e5 | 1.52e5 | 1.49e5 | 1.35e5 | 10332 | inactive
SdhAL (Succinate dehydrogenase, subunit A (flavoprotein)-like) | DRSC10539 | 1.15e5 | 91240 | 72880 | 30095 | 9800 | inactive
alph (alphabet) | DRSC15398 | 1.79e5 | 2.24e5 | 2.80e5 | 2.57e5 | 12130 | inactive
CG31386 (retired record) | DRSC22769 | – | – | – | – | – | inactive
CG7196 (retired record) | DRSC01000 | 1.42e5 | 1.75e5 | 1.77e5 | 1.78e5 | 10395 | inactive
CG7196 (retired record) | DRSC03023 | 1.24e5 | 1.47e5 | 1.15e5 | 1.51e5 | 17855 | inactive
glec (gliolectin) | DRSC16958 | 1.85e5 | 1.43e5 | 2.20e5 | 2.20e5 | 13965 | inactive
CG34160 | DRSC01131 | 1.50e5 | 1.19e5 | 1.45e5 | 1.41e5 | 8955 | inactive
AP-2alpha (Adaptor Protein complex 2, alpha subunit) | DRSC00800 | 57300 | 66785 | 49370 | 39225 | 5790 | inactive
CG7912 | DRSC16343 | 1.24e5 | 1.46e5 | 1.55e5 | 1.52e5 | 12560 | inactive
CG17068 | DRSC20545 | 1.08e5 | 1.40e5 | 1.14e5 | 54600 | 9325 | inactive
Pi3K21B | DRSC00771 | 1.50e5 | 1.64e5 | 1.17e5 | 1.59e5 | 14855 | inactive
Mob4 (MOB kinase activator 4) | DRSC04993 | 1.07e5 | 1.12e5 | 99155 | 1.00e5 | 7955 | inactive
CG10164 | DRSC14197 | 2.05e5 | 1.89e5 | 2.70e5 | 3.00e5 | 11220 | inactive
CG15699 (retired record) | DRSC06571 | 22855 | 44550 | 45125 | 46095 | 4288 | inactive
bug (bunker gear) | DRSC07137 | 1.14e5 | 1.23e5 | 2.68e5 | 2.25e5 | 9992 | inactive
CG33655 | DRSC03858 | 86150 | 70275 | 80410 | 93165 | 7035 | inactive
Taf4 (TBP-associated factor 4) | DRSC11297 | 56730 | 57900 | 24100 | 37165 | 4760 | inactive
Polr1F (RNA polymerase I subunit F) | DRSC02278 | 1.05e5 | 1.35e5 | 1.15e5 | 1.38e5 | 6232 | active
CG5697 | DRSC15858 | 1.43e5 | 1.32e5 | 82405 | 82325 | 16510 | inactive
Ca-alpha1T (Ca[2+]-channel protein alpha[[1]] subunit T) | DRSC17842 | 1.24e5 | 1.57e5 | 2.30e5 | 2.49e5 | 11585 | inactive
Ca-alpha1T (Ca[2+]-channel protein alpha[[1]] subunit T) | DRSC18103 | 1.24e5 | 1.32e5 | 2.67e5 | 2.12e5 | 9435 | inactive
Ca-alpha1T (Ca[2+]-channel protein alpha[[1]] subunit T) | DRSC18356 | 80095 | 75235 | 1.10e5 | 1.18e5 | 6415 | inactive
Ca-alpha1T (Ca[2+]-channel protein alpha[[1]] subunit T) | DRSC18357 | 1.60e5 | 1.82e5 | 3.12e5 | 2.07e5 | 12000 | inactive
